# The supplement of paper PMC6411743
# Amino acid sequences for entries named in this document (tags omitted). A change or cut given only in a name is not applied to a line headed by its entry.
# UniProt Q6P1X6: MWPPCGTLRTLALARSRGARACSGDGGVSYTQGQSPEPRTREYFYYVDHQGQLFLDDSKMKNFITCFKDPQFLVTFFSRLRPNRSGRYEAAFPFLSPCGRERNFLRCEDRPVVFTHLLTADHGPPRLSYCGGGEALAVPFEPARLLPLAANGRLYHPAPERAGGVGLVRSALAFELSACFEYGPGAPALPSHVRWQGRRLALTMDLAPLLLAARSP
# UniProt Q7L2J0: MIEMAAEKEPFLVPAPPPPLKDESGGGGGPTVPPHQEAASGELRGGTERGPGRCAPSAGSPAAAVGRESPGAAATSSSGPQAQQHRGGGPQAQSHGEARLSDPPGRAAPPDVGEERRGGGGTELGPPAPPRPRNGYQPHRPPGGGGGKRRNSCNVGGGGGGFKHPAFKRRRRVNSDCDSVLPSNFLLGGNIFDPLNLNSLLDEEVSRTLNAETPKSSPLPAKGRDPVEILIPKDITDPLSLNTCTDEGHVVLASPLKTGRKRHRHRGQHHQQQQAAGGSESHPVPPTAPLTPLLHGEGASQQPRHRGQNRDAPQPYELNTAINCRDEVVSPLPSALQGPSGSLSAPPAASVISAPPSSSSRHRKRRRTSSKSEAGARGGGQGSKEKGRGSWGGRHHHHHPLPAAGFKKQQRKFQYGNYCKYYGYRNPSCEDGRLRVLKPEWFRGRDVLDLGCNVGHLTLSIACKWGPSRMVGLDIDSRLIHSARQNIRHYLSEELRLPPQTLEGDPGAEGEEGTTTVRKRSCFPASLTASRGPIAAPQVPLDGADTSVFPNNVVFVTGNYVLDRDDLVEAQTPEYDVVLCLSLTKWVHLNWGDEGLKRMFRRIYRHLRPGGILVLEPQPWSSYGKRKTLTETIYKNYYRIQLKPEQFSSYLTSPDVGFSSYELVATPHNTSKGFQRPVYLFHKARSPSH
# UniProt Q6QNY1: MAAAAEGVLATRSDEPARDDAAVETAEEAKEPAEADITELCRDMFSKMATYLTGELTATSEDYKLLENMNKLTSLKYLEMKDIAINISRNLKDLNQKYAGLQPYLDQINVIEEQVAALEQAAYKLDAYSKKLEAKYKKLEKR
# UniProt Q7Z2T5: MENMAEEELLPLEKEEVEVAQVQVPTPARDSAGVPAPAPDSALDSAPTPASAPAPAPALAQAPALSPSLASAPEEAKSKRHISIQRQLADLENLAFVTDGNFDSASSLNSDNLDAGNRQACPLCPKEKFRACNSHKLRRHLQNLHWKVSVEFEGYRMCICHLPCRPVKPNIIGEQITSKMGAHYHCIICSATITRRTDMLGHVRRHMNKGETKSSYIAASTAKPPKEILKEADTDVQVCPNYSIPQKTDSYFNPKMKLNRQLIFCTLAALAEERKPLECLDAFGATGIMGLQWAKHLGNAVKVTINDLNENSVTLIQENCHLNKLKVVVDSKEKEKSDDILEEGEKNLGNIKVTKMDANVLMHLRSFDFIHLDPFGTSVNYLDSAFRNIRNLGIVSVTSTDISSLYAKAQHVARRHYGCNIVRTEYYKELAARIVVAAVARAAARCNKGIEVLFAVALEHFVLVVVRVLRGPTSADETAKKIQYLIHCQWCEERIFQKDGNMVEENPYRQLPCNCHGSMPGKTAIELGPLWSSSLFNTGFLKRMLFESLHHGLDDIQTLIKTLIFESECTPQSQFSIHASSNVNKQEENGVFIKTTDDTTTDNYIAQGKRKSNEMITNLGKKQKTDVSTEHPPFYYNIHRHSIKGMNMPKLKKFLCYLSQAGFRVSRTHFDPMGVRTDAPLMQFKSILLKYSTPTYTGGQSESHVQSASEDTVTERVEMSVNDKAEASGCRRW
# UniProt Q7L1T6: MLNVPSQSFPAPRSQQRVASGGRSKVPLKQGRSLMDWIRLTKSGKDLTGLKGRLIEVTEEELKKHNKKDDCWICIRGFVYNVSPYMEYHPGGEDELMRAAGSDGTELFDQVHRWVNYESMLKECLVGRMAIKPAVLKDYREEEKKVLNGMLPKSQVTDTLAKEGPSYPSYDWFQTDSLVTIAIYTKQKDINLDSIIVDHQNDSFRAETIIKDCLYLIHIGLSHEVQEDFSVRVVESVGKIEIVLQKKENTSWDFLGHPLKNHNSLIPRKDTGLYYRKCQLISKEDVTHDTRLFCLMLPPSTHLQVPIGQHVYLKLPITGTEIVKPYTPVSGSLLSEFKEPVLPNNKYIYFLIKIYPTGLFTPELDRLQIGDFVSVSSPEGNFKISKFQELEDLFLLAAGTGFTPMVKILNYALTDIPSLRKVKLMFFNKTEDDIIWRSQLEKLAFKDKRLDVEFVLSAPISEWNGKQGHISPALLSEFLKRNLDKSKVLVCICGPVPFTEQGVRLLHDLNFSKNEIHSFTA
# UniProt Q6I9Y2: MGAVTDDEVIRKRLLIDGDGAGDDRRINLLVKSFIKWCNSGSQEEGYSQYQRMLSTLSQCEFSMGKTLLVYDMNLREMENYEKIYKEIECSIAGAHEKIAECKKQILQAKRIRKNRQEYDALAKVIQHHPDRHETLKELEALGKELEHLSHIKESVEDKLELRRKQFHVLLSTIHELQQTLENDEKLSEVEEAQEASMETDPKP
# UniProt Q6STE5, whole entry: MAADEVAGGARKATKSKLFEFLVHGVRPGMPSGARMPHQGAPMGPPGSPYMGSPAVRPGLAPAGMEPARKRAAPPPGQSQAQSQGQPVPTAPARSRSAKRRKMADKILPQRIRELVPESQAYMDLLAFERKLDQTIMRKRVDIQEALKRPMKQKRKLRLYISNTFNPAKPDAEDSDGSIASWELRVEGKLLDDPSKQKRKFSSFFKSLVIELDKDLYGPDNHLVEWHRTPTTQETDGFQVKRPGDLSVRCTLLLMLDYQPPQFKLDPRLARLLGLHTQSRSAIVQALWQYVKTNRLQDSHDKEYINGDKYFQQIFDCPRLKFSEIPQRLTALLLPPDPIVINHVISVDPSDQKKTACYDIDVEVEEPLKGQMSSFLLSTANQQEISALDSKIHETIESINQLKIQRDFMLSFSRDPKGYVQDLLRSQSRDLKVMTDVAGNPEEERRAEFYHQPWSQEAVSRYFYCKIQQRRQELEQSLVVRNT
# UniProt Q5VZE5: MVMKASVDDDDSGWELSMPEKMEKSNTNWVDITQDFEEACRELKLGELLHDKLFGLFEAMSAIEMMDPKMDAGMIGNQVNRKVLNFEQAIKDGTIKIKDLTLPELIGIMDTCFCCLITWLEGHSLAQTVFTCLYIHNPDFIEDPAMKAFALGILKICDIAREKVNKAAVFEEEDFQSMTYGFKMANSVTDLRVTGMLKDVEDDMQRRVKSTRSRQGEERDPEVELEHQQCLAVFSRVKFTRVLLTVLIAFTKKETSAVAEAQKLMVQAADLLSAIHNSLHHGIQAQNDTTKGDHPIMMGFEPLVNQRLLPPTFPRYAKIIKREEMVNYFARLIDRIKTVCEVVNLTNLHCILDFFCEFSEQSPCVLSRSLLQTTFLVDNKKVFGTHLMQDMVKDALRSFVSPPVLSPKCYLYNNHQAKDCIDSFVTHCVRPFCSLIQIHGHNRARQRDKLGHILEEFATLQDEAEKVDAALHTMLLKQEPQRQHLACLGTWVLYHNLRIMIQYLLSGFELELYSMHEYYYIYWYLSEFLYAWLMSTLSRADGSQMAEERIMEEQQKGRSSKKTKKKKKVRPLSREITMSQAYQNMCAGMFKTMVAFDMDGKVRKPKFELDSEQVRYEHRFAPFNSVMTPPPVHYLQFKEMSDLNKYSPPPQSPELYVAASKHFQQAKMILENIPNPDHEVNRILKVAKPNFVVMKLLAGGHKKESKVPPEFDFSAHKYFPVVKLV
# UniProt Q6PH81: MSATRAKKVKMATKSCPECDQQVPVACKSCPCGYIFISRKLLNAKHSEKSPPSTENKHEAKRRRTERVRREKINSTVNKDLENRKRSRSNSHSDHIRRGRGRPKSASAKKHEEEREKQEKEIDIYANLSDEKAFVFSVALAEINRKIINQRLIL
# UniProt Q8IXJ9: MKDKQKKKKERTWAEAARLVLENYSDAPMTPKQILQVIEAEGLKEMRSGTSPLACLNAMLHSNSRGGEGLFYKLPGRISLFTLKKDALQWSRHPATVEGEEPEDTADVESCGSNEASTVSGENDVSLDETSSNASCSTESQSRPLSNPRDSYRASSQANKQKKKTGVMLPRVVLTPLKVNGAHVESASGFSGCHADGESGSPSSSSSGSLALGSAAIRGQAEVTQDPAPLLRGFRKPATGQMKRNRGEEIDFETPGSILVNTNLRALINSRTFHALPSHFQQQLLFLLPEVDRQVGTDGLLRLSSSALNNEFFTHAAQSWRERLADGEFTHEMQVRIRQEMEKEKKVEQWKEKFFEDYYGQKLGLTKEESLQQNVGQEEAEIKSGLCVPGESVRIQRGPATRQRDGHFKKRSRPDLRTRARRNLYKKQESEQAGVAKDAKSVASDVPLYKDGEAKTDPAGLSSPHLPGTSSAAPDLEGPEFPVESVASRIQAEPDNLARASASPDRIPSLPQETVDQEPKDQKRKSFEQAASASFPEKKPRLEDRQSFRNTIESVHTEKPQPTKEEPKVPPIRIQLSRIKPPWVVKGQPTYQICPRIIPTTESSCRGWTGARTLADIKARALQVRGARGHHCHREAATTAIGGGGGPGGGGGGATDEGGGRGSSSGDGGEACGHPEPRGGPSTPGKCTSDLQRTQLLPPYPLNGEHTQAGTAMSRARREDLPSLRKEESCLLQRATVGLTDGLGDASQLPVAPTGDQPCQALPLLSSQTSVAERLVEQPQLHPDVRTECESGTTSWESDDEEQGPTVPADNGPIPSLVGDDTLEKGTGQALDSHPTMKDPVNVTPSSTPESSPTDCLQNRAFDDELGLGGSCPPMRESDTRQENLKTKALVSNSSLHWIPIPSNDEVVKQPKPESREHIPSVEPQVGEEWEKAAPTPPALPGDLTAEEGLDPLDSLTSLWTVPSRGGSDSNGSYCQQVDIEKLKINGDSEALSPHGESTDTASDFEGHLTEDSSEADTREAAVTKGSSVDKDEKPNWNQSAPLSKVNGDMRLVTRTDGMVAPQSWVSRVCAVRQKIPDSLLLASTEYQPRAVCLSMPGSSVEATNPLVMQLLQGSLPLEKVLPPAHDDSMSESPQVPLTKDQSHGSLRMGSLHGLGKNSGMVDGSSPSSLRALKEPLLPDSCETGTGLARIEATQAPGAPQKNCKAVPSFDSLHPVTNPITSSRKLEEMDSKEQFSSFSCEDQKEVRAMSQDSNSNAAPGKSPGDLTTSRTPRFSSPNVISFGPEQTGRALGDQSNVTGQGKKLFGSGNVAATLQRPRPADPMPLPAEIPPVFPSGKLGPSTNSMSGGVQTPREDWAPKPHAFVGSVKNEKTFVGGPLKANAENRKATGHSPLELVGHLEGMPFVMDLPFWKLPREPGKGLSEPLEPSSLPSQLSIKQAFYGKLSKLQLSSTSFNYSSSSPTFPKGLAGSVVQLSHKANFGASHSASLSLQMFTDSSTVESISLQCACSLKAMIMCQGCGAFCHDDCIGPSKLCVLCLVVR
# UniProt Q6P3S1: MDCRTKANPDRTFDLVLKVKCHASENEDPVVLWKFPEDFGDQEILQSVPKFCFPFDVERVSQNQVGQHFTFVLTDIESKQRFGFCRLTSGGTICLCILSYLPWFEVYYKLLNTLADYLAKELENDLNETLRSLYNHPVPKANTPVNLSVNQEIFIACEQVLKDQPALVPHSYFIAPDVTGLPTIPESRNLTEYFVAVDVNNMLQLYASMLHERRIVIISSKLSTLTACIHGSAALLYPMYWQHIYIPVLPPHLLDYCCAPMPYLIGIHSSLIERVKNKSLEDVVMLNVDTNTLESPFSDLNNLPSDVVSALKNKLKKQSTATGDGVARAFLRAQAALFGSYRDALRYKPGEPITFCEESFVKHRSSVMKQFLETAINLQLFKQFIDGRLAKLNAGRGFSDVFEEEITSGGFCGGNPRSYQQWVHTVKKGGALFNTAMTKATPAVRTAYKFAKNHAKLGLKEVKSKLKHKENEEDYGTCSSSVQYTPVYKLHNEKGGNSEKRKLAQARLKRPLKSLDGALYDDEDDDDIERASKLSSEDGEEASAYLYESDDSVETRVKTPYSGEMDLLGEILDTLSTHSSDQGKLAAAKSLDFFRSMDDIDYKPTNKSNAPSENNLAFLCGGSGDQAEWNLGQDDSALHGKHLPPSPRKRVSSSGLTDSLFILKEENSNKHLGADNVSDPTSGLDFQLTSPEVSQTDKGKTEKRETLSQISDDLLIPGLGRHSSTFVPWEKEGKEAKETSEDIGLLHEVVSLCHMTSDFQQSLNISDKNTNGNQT
# UniProt Q7L266: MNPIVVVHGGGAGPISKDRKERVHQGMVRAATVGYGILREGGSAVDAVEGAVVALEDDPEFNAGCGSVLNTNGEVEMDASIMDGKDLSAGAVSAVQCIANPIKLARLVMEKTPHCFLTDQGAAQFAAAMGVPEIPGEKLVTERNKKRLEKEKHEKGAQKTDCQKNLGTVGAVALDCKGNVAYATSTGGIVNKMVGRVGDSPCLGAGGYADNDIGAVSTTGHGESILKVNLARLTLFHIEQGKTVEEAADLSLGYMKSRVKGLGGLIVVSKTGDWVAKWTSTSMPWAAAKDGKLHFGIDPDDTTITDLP
# ± gives the standard deviation of the averaged measurements. The entries are a selection whose mix differs from that of the whole data set.
# Compound: Nc1ncnc2c1ncn2[C@@H]1O[C@H](COP(=O)(O)OP(=O)(O)NP(=O)(O)O)[C@@H](O)[C@H]1O [adenylyl imidodiphosphate]
# Experiment: NP40-soluble protein abundance relative to vehicle (solubility fold change) (ratio); higher = more soluble protein in presence of AMP-PNP
# How it was run: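 Data come from three independent experiments in which Dounce-homogenised Jurkat crude lysate was treated at eight concentrations from 0.1 to 10 mM. Treatment ran 10 min at room temperature and then 3 min at 37 °C, after which 0.8% NP40 and benzonase were added for 60 min at 4 °C before ultracentrifugation. The supernatant underwent TMT labelling and LC-MS/MS, and vsn-normalised intensities were expressed as fold change against the detergent-processed vehicle in each replicate.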
Target,NP40-soluble protein abundance (concentration: 1mM),NP40-soluble protein abundance (concentration: 2mM),NP40-soluble protein abundance (concentration: 4mM),NP40-soluble protein abundance (concentration: 6mM),NP40-soluble protein abundance (concentration: 8mM),NP40-soluble protein abundance (concentration: 10mM)
UniProt Q6PIW4 and related entries,0.968 ± 0.012,1 ± 0.023,0.981 ± 0.029,0.974 ± 0.018,0.935 ± 0.011,0.959 ± 0.017
UniProt Q6PCB8 and related entries,1.02 ± 0.012,1.06 ± 0.045,0.997 ± 0.017,1.02 ± 0.064,0.99 ± 0.014,1.01 ± 0.041
HEATR3 (UniProt Q7Z4Q2),1.03 ± 0.02,1.04 ± 0.019,1.05 ± 0.023,1.036 ± 0.0075,1.05 ± 0.017,1.06 ± 0.022
UniProt Q6P1X6 and related entries,1 ± 0.024,1 ± 0.013,1.02 ± 0.034,0.968 ± 0.028,0.986 ± 0.056,1.01 ± 0.032
MEPCE (UniProt Q7L2J0),1.06 ± 0.039,1.12 ± 0.023,1.1 ± 0.026,1.11 ± 0.04,1.1 ± 0.048,1.18 ± 0.053
UniProt Q6UB98 and related entries,0.991 ± 0.053,0.986 ± 0.03,1.15 ± 0.17,1.06 ± 0.039,1.08 ± 0.12,1.03 ± 0.026
FAM117B (UniProt Q6P1L5),0.99 ± 0.022,1.07 ± 0.04,1.01 ± 0.025,1.005 ± 0.01,0.9688 ± 0.0059,1.01 ± 0.022
DCAF15 (UniProt Q66K64),1.05 ± 0.02,1.07 ± 0.023,1.04 ± 0.021,1.02 ± 0.041,1.02 ± 0.044,1.04 ± 0.021
UniProt Q6QNY1 and related entries,0.993 ± 0.062,0.982 ± 0.083,0.981 ± 0.042,0.955 ± 0.052,0.958 ± 0.047,0.955 ± 0.041
ABHD13 (UniProt Q7L211),1.01 ± 0.037,0.9867 ± 0.0085,1.003 ± 0.0017,0.994 ± 0.023,0.991 ± 0.035,1.03 ± 0.018
UniProt Q7L592,0.98 ± 0.025,0.951 ± 0.018,0.996 ± 0.034,1.007 ± 0.0097,1 ± 0.03,1.02 ± 0.014
UniProt Q7Z2T5,1.07 ± 0.016,1.04 ± 0.018,1.07 ± 0.048,1.07 ± 0.077,1.12 ± 0.044,1.15 ± 0.066
CYB5R4 (UniProt Q7L1T6),0.98 ± 0.049,1 ± 0.012,0.986 ± 0.034,0.987 ± 0.047,0.946 ± 0.028,0.962 ± 0.011
THOC7 (UniProt Q6I9Y2),1.29 ± 0.045,1.47 ± 0.2,1.57 ± 0.24,1.73 ± 0.39,1.85 ± 0.47,1.93 ± 0.64
UniProt Q6STE5 and related entries,0.994 ± 0.051,0.986 ± 0.031,0.99 ± 0.048,0.982 ± 0.013,0.999 ± 0.019,0.993 ± 0.027
FBXO38 (UniProt Q6PIJ6),0.993 ± 0.075,1.03 ± 0.072,1.05 ± 0.071,1.02 ± 0.061,0.985 ± 0.089,1.01 ± 0.11
UniProt Q6PJW8,0.994 ± 0.014,1.02 ± 0.047,1 ± 0.023,0.977 ± 0.019,0.976 ± 0.015,0.983 ± 0.064

# Complete entries as entered above:
# UniProt Q6P1X6 and related entries reads NP40-soluble protein abundance (concentration: 1mM): 1 ± 0.024; NP40-soluble protein abundance (concentration: 2mM): 1 ± 0.013; NP40-soluble protein abundance (concentration: 4mM): 1.02 ± 0.034; NP40-soluble protein abundance (concentration: 6mM): 0.968 ± 0.028; NP40-soluble protein abundance (concentration: 8mM): 0.986 ± 0.056; NP40-soluble protein abundance (concentration: 10mM): 1.01 ± 0.032
# UniProt Q6PIW4 and related entries reads NP40-soluble protein abundance (concentration: 1mM): 0.968 ± 0.012; NP40-soluble protein abundance (concentration: 2mM): 1 ± 0.023; NP40-soluble protein abundance (concentration: 4mM): 0.981 ± 0.029; NP40-soluble protein abundance (concentration: 6mM): 0.974 ± 0.018; NP40-soluble protein abundance (concentration: 8mM): 0.935 ± 0.011; NP40-soluble protein abundance (concentration: 10mM): 0.959 ± 0.017
# UniProt Q6UB98 and related entries reads NP40-soluble protein abundance (concentration: 1mM): 0.991 ± 0.053; NP40-soluble protein abundance (concentration: 2mM): 0.986 ± 0.03; NP40-soluble protein abundance (concentration: 4mM): 1.15 ± 0.17; NP40-soluble protein abundance (concentration: 6mM): 1.06 ± 0.039; NP40-soluble protein abundance (concentration: 8mM): 1.08 ± 0.12; NP40-soluble protein abundance (concentration: 10mM): 1.03 ± 0.026

# The listing continues:

Target,NP40-soluble protein abundance (concentration: 1mM),NP40-soluble protein abundance (concentration: 2mM),NP40-soluble protein abundance (concentration: 4mM),NP40-soluble protein abundance (concentration: 6mM),NP40-soluble protein abundance (concentration: 8mM),NP40-soluble protein abundance (concentration: 10mM)
UniProt Q5VZE5,1.08 ± 0.069,1.05 ± 0.033,1.07 ± 0.027,1.07 ± 0.018,1.06 ± 0.032,1.05 ± 0.03
AAGAB (UniProt Q6PD74),1.07 ± 0.052,1.11 ± 0.11,1.03 ± 0.05,1.02 ± 0.016,1.04 ± 0.021,1.01 ± 0.017
ANKRD11 (UniProt Q6UB99),1.01 ± 0.025,1.09 ± 0.039,1.04 ± 0.028,1.06 ± 0.029,1.02 ± 0.036,1.05 ± 0.018
UniProt Q6GQQ9 and related entries,1 ± 0.013,1.04 ± 0.053,1.03 ± 0.031,1 ± 0.018,1 ± 0.018,1 ± 0.032
UniProt Q6ZRS2 and related entries,1.02 ± 0.05,1.14 ± 0.037,1.14 ± 0.047,1.19 ± 0.11,1.16 ± 0.086,1.25 ± 0.1
UniProt Q6NXT6 and related entries,1 ± 0.024,1.02 ± 0.071,1 ± 0.023,0.974 ± 0.029,0.915 ± 0.027,0.979 ± 0.023
UniProt Q6PI26 and related entries,1.01 ± 0.015,1.01 ± 0.048,0.9948 ± 0.001,1.007 ± 0.0059,0.996 ± 0.014,1.01 ± 0.034
C16orf87 (UniProt Q6PH81),0.972 ± 0.021,1.03 ± 0.082,0.976 ± 0.035,1.01 ± 0.018,0.999 ± 0.045,1 ± 0.033
UniProt Q7L5Y1 and related entries,0.992 ± 0.03,1 ± 0.016,1.007 ± 0.0081,0.99 ± 0.04,1.01 ± 0.013,0.996 ± 0.0075
UniProt Q6PI47,0.873 ± 0.06,0.905 ± 0.046,0.947 ± 0.051,1 ± 0.023,1.08 ± 0.047,1.1 ± 0.064
UniProt Q7Z3E2,0.945 ± 0.015,0.996 ± 0.038,0.974 ± 0.012,0.964 ± 0.014,0.9648 ± 0.0041,0.9661 ± 0.0039
UniProt Q6UXH1 and related entries,1.01 ± 0.032,1.07 ± 0.056,1.01 ± 0.029,0.964 ± 0.019,0.956 ± 0.045,1.01 ± 0.029
SMYD5 (UniProt Q6GMV2),0.937 ± 0.035,0.929 ± 0.014,0.97 ± 0.048,1.06 ± 0.097,1.08 ± 0.086,1.08 ± 0.073
Q76L82 and related entries (UniProt Q8IXJ9+Q76L82),0.98 ± 0.025,1.01 ± 0.03,0.984 ± 0.012,1.02 ± 0.029,1.03 ± 0.029,1.05 ± 0.014
UniProt Q6P3S1 and related entries,1.014 ± 0.0082,1 ± 0.016,0.9726 ± 0.0053,0.991 ± 0.0054,0.9776 ± 0.00099,0.982 ± 0.02
UniProt Q7L266 and related entries,1.01 ± 0.038,1.05 ± 0.081,1.03 ± 0.054,1.01 ± 0.016,0.981 ± 0.039,0.995 ± 0.055
